Source: PubChem BioAssay AID2685 (National Center for Advancing Translational Sciences (NCATS), 2010)
The list shows a part of the results. Further columns of the screen follow, without active or inactive calls. The list favours compounds with an active or inconclusive main result. The note in brackets gives the kind of curve behind each potency; many fits are weak. Where a SMILES comes first, the peptide text is derived from it. The star is where a group is joined. Boc = CC(C)(C)OC(=O)*; OtBu = CC(C)(C)O*

Experiment: qHTS Assay for Lipid Storage Modulators in Drosophila S3 Cells;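 as to cell number change: cells counted by Cell Tracker Red CMTPX staining in the red channel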
Details: BODIPY lipid droplet fluorescence, 18-24 h; for cell number change: measured here: cell count max response, cells fed with added oleic acid
Method in brief: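 Drosophila S3 cells got compounds at several concentrations plus oleic acid (400 uM solution). Laser-scanning cytometry with 488 nm excitation read lipid droplets at 500-530 nm and cells at 575-640 nm. Percent activity was relative to 20 uM Triacsin C.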

[1] = measured here: lipid fluorescence (Fed channel) AC50, cells fed with added oleic acid
[2] = measured here: cell number channel AC50, cells fed with added oleic acid

SMILES | cell number change [%] | AC50 [1] | AC50 [2]
COc1ccc(CN2CCC(n3nccc3NC(=O)C3CCCC3)CC2)cc1 | 3.47 | – | –
COc1ccc(C(=O)Nc2ccccc2C)cc1S(=O)(=O)N1CCOCC1 | 8.97 | 0.13 µM [falling, partial curve, poor fit] | –
c1cncc(-c2nn3c(Cn4cnc5ccccc54)nnc3s2)c1 | – | 0.13 µM [rising, full curve, poor fit] | 2.06 µM [rising, partial curve]
CCOc1ccc(NC(=O)Cn2ncc3ccccc32)cc1 | 27 | – | –
CN(Cc1ccccc1F)C(=O)c1ccc2c(=O)n3c(nc2c1)CCC3 | 33.7 | – | 11.6 µM [rising, partial curve]
CC(NC(=O)C(CC(=O)OC(C)(C)C)NC(=O)OC(C)(C)C)C(N)=O (stereo unspecified) (Boc-Asp(OtBu)-Ala-NH2; configuration not given here) | -35.2 | 4.61 µM [falling, full curve] | 4.11 µM [falling, full curve, poor fit]
CC(C)(C)NC(=O)C1CCN(C(=O)c2ccc(Br)cc2)CC1 | 11.1 | – | –
CCCSc1nnc(Cn2c(=O)sc3ccccc32)n1-c1ccccc1 | -8.34 | – | –
CCOC(=O)C1=C(CN2CCOCC2)NC(=O)NC1c1cccc([N+](=O)[O-])c1 (stereo unspecified) | 12.6 | 6.51 µM [falling, single point] | –
Cc1cccc(C)c1NC(=O)CN1N=NC2C(=O)N(c3cccc(Cl)c3)C(=O)C21 (stereo unspecified) | 11.4 | 0.00461 µM [falling, full curve, poor fit] | –
Cc1cc(C)c(S(=O)(=O)NCc2cn3c(C)csc3n2)c(C)c1 | -5.48 | – | –
Cc1cc(C)c2c(N)c(C(=O)c3ccc(Cl)cc3Cl)sc2n1 | 22.6 | 1.84 µM [rising, partial curve] | –
Cc1cccc(NC(=O)c2ccc(S(=O)(=O)N3CCC(C)CC3)cc2)n1 | -13.6 | 29.1 µM [falling, single point] | –
Cc1cc(=O)oc2cc(OCC(=O)N3CCN(C(=O)C4COc5ccccc5O4)CC3)c(Cl)cc12 (stereo unspecified) | -22.9 | – | –
Fc1ccc(-c2cnc[nH]2)cc1 | 34.4 | – | 11.6 µM [rising, single point]
O=C(c1cccs1)c1ccc(-c2cccs2)s1 | -20.1 | 4.61 µM [falling, full curve, poor fit] | –
Cc1ccc2nc(SCC(=O)NC3CCCC3)[nH]c2c1 | – | 3.26 µM [rising, partial curve] | –
COc1ccccc1N(CC(=O)NCc1ccccn1)S(C)(=O)=O | -24.1 | 0.651 µM [falling, partial curve, poor fit] | 0.651 µM [falling, full curve]

Ordered by SMILES length (descending): 3 of the compounds above.
SMILES | cell number change [%] | AC50 [1] | AC50 [2]
CC(NC(=O)C(CC(=O)OC(C)(C)C)NC(=O)OC(C)(C)C)C(N)=O (stereo unspecified) (Boc-Asp(OtBu)-Ala-NH2; configuration not given here) | -35.2 | 4.61 µM [falling, full curve] | 4.11 µM [falling, full curve, poor fit]
COc1ccc(CN2CCC(n3nccc3NC(=O)C3CCCC3)CC2)cc1 | 3.47 | – | –
c1cncc(-c2nn3c(Cn4cnc5ccccc54)nnc3s2)c1 | – | 0.13 µM [rising, full curve, poor fit] | 2.06 µM [rising, partial curve]
